Reference: patent US20100216703A1, “Inhibitors of PDE4 and Methods of Use” (THE REGENTS OF THE UNIVERSITY OF CALIFORNIA, priority 2006, published 2010)
Entries after “also recorded” stand apart in the source; their conditions may differ. At least one structure is not confirmed: it was looked up by name or label, or the drawing left a doubt.

Tests used:
NIH3T3 cells [1] = test: Quantification of tPA activity; format: cell-based; conditions: 10 μM forskolin 16 h; 200 nM KT5720; IBMX
Protocol: (§1) Quantification of tPA and uPA activity in SC and fibroblast in lysates and supernatants was performed according to the directions of the activity assay kits from American Diagnostica and Chemicon, respectively. To elevate cAMP cells were treated either with 2 mM db-cAMP (Sigma-Aldrich) or with 10 μM forskolin (Sigma-Aldrich) for 16 h. To block PKA activity, cells were treated with 200 nM KT5720 (Calbiochem).

NIH3T3p75NTR cells [2] = test: Quantification of tPA activity; format: cell-based; conditions: 10 μM forskolin 16 h; 200 nM KT5720; IBMX; rolipram
Protocol: as §1

wt and p75NTR−/− SCs = test: Quantification of tPA activity in primary Schwann cells; format: cell-based, mouse; conditions: 10 μM forskolin, 100 ng/ml NGF, 50 ng/ml BDNF, 16 h
Protocol: as §1
Murine SCs were isolated as described previously (Syroid et al., 2000). NIH3T3 or HEK293 cells were cotransfected either with p75NTR FL, ICD or deletion constructs, and PDE4A5 cDNAs using Lipofectamine 2000 (Invitrogen) as described in the Results section. CGNs were isolated from P10 animals (Yamashita and Tohyama, 2003). CGNs were lysed immediately for co-IP, without plating. siRNA directed against p75NTR (Dharmacon; SMART Pool reagent, Cat. M-080041-00; Cat. M-009340) was transfected into SCs and NIH3T3p75NTR cells using Dharmafect (Dharmacon).

NIH3T3 cells [3] = test: RT-PCR / real-time PCR of tPA and PAI-1 RNA; format: cell-based
Protocol: RT-PCR was performed as described previously (Akassoglou et al., 2002). Primers for tPA, uPA, and PAI-1 genes were used as described previously (Yamamoto and Loskutoff, 1996). Real-time PCR was performed using the Opticon DNA Engine 2 (MJ Research) and the Quantitect SYBR Green PCR kit (QIAGEN). Results were analyzed with Opticon 2 software using the comparative Ct method as described previously (Livak and Schmittgen, 2001). Data were expressed as ΔΔCt for the tPA gene normalized against GAPDH.

NIH3T3p75NTR cells [4] = test: RT-PCR / real-time PCR of tPA and PAI-1 RNA; format: cell-based

For `C=C[C@@]1(C)CC(=O)[C@]2(O)[C@@]3(C)[C@@H](O)CCC(C)(C)[C@@H]3[C@H](O)[C@H](OC(C)=O)[C@@]2(C)O1` [forskolin], the “tPA activity in NIH3T3 cells” value (NIH3T3 cells [1]) was “increases tPA activity”, the “tPA activity in NIH3T3p75NTR cells” value (NIH3T3p75NTR cells [2]) was “increases tPA activity of NIH3T3 p75NTR fibroblasts to the levels of NIH3T3 cells” and the “tPA activity in SCs” value (wt and p75NTR−/− SCs) was “increases tPA activity”. For the same compound, the “PAI-1 RNA in NIH3T3 cells” value (NIH3T3 cells [3]) was “decreases PAI-1 RNA”, the “tPA mRNA in NIH3T3 cells” value (NIH3T3 cells [3]) was “increases tPA mRNA” and the “PAI-1 RNA in NIH3T3p75NTR cells” value (NIH3T3p75NTR cells [4]) was “decreases PAI-1 RNA”. The “tPA mRNA in NIH3T3p75NTR cells” value (NIH3T3p75NTR cells [4]) was “increases tPA mRNA; also recorded: increases both tPA RNA”.
